Numbering of substitutions follows the chain as printed. Numbers in names are those of the source. No constants are given. Whether binding was seen depends on the method and setting. In cells and extracts the contact can be indirect. Some entries that bind do so weakly or less than the wild type. For some of these results: Sequences can lack the tags named with a protein.
Legend:
Experiment in all cases: cross-linking
[1] = molecular target: Smc^4S-HaloTag with S152C and G302W (B. subtilis) (UniProt P51834)
[2] = molecular target: Smc^4S-HaloTag with A715C and G302W (B. subtilis) (UniProt P51834)
[3] = molecular target: Smc^4S(K1151C)-HT (B. subtilis) (UniProt P51834)
[4] = molecular target: Smc^4S(K37I, K1151C)-HT (B. subtilis) (UniProt P51834)
[5] = molecular target: Smc^4S(E1118Q, K1151C)-HT (B. subtilis) (UniProt P51834)
[6] = molecular target: Smc(GE, E1118Q) with K1151C (B. subtilis) (UniProt P51834)
[7] = molecular target: Smc^4S-HaloTag with Q320C and K1151C (B. subtilis) (UniProt P51834)

B1: Smc^4S-HaloTag with S152C and G302W (protein, UniProt P51834 1-1186)
chain: MFLKRLDVIGFKSFAERISVDFVKGVTAVVGPNGSGKSNITDAIRWVLGEQSARSLRGGKMEDIIFAGSDSRKRLNLAEVTLTLDNDDHFLPIDFHEVSVTRRVYRSGESEFLINNQPSRLKDIIDLFMDSGLGKEAFSIISQGKVEEILSCKAEDRRSIFEEAAGVLKYKTRKKKAENKLFETQDNLNRVEDILHELEGQVEPLKIQASIAKDYLEKKKELEHVEIALTAYDIEELHGKWSTLKEKVQMAKEEELAESSAISAKEAKIEDTRDKIQALDESVDELQQVLLVTSEELEKLEWRKEVLKERKKNAVQNQEQLEEAIVQFQQKETVLKEELSKQEAVFETLQAEVKQLRAQVKEKQQALSLHNENVEEKIEQLKSDYFELLNSQASIRNELQLLDDQMSQSAVTLQRLADNNEKHLQERHDISARKAASETEFARIEQEIHSQVGAYRDMQTKYEQKKRQYEKNESALYQAYQYVQQARSKKDMLETMQGDFSGFYQGVKEVLKAKERLGGIRGAVLELISTEQKYETAIEIALGASAQHVVTDDEQSARKAIQYLKQNSFGRATFLPLSVIRDRQLQSRDAETAARHSSFLGVASELVTFDPAYRSVIQNLLGTVLITEDLKGANELAKLLGHRYRIVTLEGDVVNPGGSMTGGAVKKKNNSLLGRSRELEDVTKRLAEMEEKTALLEQEVKTLKHSIQDMEKKLADLRETGEGLRLKQQDVKGQLYELQVAEKNINTHLELYDQEKSALSESDEERKVRKRKLEEELSAVSEKMKQLEEDIDRLTKQKQTQSSTKESLSNELTELKIAAAKKEQASKGEEDNLARLKKELTETELALKEAKEDLSFLTSEMSSSTSGEEKLEEAAKHKLNDKTKTIELIALRRDQRIKLQHGLDTYERELKEMKRLYKQKTTLLKDEEVKLGRMEVELDNLLQYLREEYSLSFEGAKEKYQLETDPEEARKRVKLIKLAIEELGTVNLGSIDEFERVNERYKFLSEQKEDLTEAKNTLFQVIEEMDEEMTKRFNDTFVQIRSHFDQVFRSLFGGGRAELRLTDPNDLLHSGVEIIAQPPGKKLQNLNLLSGGERALTAIALLFSILKVRPVPFSVLDEVEAALDEANVFRFAQYLKKYSSDTQFIVITHRKGTMEEADVLYGVTMQESGVSKVISVKLEETKEFVQ
[1]
  binding: binds

B2: Smc^4S-HaloTag with A715C and G302W (protein, UniProt P51834 1-1186)
chain: B1 chain with C152S, A715C
[2]
  binding: binds

B3: Smc^4S(K1151C)-HT (protein, UniProt P51834 1-1186)
chain: B1 chain with C152S, W302G, K1151C
[3]
  binding: binds

B4: Smc^4S(K37I, K1151C)-HT (protein, UniProt P51834 1-1186)
chain: B1 chain with K37I, C152S, W302G, K1151C
[4]
  binding: binds

B5: Smc^4S(E1118Q, K1151C)-HT (protein, UniProt P51834 1-1186)
chain: B1 chain with C152S, W302G, E1118Q, K1151C
[5]
  binding: binds

B6: Smc(GE, E1118Q) with K1151C (protein, UniProt P51834 1-1186)
chain: B1 chain with C152S, W302E, E1118Q, K1151C
[6]
  binding: binds

B7: Smc^4S-HaloTag with Q320C and K1151C (protein, UniProt P51834 1-1186)
chain: B1 chain with C152S, W302G, Q320C, K1151C
[7]
  binding: binds
